This data set is described as follows: Radiolabeling of compound with 68Ga, labeling rate by thin-layer chromatography (0.1-20 μg, 25° C. and 37° C., 10 min). The protocol:
Experimental Example 1: Labeling Rates of Compound I-5 with Different Masses Labeled with ^68Ga at 25° C. And 37° C.
Compound I-5 was dissolved in water at a concentration of 10 μg/μL. Two groups were set, and for each group, seven samples in total with the masses of 0.1 μg, 0.5 μg, 1 μg, 2 μg, 5 μg, 10 μg, and 20 μg were added in centrifuge tubes, respectively. Then 45 μL of a 1.5M sodium acetate solution and 430 μL of a gallium chloride eluent (1 mCi) were added, mixed thoroughly, and placed at 25° C. and 37° C. for 10 min. After labeling, samples were subjected to thin-layer chromatography, and the labeling rate was calculated after instrument analysis.

The text below walks through data of patent US20260317349A1, “MACROCYCLIC CHELATING AGENT CAPABLE OF SITE-SPECIFIC MODIFICATION, RADIONUCLIDE PROBE, AND USE THEREOF” (SHANGHAI INSTITUTE OF MATERIA MEDICA, CHINESE ACADEMY OF …, priority 2023, published 2026).

On to `C#CCN1Cc2cccc(n2)CN(CC(=O)O)Cc2cc(C)cc(c2O)CN(CC(=O)O)Cc2cccc(n2)CN(CC(=O)O)Cc2cc(C)cc(c2O)C1` [Compound I-5], for which the “labeling efficiency, 37° C. versus 25° C.” value (0.5 μg or more) is “higher at 37 °C than those at 25 °C”. In addition, the labeling rate result runs as follows: (25° C., 0.1-20 μg compound, 1 mCi gallium chloride eluent, sodium acetate) “over 90%”; (37° C., 20 μg) ~100%; (37° C., 0.1-20 μg compound, 1 mCi gallium chloride eluent, sodium acetate) “over 90%”.
